# Reference: the supplement of paper PMC10849652
# The chains behind the UniProt entries cited, without tags or fusion partners. Where a name states a change or a piece, a line headed by the entry shows the natural chain unless it says otherwise.
# UniProt P60604: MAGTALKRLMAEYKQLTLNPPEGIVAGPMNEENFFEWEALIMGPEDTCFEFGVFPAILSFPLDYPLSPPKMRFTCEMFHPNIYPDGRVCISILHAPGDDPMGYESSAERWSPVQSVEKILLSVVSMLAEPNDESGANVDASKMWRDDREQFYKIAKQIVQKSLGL
# UBE2L5, A0A1B0GUS4, UniProt A0A1B0GUS4, whole entry, looked up: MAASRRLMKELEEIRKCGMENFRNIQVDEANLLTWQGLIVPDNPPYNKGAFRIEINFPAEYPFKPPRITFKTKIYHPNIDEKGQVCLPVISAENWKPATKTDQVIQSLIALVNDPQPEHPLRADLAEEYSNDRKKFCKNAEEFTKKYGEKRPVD
# UniProt A6NHL2: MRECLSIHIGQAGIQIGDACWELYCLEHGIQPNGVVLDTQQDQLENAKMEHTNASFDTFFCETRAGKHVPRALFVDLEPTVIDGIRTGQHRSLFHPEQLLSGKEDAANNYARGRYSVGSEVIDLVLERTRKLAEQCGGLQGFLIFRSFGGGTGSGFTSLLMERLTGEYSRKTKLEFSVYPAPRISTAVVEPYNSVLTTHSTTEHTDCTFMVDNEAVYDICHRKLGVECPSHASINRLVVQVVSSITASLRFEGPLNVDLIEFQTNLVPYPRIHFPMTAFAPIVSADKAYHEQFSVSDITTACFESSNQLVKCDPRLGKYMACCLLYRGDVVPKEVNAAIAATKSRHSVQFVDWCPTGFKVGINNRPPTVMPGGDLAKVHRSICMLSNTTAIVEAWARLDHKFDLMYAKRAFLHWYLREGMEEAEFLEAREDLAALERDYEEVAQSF
# UniProt Q96RT8, whole entry, looked up: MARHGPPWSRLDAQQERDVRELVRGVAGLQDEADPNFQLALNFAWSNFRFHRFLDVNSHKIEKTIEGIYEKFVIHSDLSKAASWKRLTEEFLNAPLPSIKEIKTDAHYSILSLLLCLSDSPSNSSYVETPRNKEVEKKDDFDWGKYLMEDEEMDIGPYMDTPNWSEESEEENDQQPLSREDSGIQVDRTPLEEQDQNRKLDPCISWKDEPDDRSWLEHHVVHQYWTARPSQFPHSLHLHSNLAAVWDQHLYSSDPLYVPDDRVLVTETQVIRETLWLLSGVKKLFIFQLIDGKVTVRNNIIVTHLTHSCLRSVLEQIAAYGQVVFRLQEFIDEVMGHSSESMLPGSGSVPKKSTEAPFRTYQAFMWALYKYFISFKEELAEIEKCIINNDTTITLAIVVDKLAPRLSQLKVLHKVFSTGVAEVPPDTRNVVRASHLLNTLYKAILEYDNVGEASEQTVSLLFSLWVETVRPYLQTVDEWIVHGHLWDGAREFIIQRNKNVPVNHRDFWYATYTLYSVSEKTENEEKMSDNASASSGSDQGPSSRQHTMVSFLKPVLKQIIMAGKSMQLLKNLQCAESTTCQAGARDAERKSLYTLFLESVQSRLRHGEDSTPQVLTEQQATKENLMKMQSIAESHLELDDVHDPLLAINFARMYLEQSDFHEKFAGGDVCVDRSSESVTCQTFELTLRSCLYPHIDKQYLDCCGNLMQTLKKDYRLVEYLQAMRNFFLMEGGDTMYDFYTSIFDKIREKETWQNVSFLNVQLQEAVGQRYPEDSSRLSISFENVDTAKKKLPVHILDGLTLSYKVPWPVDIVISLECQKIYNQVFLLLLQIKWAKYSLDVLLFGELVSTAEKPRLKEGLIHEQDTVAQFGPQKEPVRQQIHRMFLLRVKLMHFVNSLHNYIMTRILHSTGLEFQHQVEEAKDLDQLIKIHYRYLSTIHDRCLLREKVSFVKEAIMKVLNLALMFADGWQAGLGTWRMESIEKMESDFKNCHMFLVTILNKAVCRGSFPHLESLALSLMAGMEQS
# UniProt Q04323: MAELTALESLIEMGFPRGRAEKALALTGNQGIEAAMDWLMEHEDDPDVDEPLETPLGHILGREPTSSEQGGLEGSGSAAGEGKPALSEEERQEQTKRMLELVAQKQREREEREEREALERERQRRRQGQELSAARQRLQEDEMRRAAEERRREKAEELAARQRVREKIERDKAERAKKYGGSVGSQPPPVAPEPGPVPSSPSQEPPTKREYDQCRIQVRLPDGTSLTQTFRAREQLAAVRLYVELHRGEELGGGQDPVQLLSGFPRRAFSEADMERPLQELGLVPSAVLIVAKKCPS
# UniProt O00124: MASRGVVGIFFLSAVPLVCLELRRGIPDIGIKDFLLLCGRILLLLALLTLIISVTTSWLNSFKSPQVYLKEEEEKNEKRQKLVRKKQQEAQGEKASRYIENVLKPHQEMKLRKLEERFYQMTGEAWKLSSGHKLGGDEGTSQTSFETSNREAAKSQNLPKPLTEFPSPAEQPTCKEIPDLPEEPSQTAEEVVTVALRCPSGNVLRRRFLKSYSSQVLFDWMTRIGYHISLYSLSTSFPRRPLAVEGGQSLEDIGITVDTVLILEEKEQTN
# UniProt Q86VQ3: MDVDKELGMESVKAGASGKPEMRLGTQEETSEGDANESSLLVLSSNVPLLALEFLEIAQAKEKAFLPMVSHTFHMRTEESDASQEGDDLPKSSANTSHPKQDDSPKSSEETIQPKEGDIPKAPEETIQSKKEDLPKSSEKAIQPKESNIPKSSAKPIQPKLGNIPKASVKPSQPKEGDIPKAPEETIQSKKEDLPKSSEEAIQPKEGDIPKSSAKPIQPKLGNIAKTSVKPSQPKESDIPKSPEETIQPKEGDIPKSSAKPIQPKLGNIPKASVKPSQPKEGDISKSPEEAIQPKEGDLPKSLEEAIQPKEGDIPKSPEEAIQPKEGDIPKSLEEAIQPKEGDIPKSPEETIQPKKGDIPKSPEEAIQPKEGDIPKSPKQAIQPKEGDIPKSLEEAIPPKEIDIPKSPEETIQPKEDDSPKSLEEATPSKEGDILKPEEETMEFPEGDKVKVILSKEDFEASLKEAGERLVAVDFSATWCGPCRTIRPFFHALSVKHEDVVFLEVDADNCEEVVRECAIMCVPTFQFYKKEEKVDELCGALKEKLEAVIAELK
# UniProt A6NNZ2, whole entry, looked up: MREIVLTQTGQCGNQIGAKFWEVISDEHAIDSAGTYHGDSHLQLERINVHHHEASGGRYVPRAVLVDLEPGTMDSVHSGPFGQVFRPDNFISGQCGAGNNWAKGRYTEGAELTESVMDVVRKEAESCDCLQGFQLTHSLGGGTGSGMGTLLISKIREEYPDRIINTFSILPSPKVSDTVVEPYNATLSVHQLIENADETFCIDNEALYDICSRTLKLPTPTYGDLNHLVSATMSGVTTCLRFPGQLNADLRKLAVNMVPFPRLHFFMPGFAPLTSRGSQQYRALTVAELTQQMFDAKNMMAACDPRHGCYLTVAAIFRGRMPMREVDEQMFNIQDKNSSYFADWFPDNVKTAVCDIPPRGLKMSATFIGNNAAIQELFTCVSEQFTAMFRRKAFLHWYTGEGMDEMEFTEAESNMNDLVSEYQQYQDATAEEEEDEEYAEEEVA
# UniProt O75896: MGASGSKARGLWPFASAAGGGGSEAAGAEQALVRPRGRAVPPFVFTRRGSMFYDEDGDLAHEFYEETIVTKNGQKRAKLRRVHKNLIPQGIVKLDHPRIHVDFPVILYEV
# UniProt Q9NNX1: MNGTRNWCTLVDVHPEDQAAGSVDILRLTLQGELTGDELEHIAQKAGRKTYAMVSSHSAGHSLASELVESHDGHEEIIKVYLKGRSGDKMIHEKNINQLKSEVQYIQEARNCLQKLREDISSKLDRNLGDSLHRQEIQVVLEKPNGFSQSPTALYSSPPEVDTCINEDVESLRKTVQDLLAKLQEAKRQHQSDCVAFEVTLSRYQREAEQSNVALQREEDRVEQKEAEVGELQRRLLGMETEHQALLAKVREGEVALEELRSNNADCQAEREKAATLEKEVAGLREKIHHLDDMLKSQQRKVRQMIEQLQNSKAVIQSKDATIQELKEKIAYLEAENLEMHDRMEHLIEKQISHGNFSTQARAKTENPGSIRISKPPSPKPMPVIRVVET
# UniProt Q14CS0: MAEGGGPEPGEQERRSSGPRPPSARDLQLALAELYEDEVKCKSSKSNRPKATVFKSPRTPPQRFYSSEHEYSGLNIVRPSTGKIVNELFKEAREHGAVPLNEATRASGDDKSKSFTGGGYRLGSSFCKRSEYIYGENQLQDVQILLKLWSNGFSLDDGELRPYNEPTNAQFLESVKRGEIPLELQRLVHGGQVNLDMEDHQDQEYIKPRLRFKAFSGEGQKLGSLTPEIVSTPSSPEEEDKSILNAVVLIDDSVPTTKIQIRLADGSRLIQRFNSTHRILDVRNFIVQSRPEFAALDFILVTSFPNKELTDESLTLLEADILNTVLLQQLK
# UniProt Q9P2K2: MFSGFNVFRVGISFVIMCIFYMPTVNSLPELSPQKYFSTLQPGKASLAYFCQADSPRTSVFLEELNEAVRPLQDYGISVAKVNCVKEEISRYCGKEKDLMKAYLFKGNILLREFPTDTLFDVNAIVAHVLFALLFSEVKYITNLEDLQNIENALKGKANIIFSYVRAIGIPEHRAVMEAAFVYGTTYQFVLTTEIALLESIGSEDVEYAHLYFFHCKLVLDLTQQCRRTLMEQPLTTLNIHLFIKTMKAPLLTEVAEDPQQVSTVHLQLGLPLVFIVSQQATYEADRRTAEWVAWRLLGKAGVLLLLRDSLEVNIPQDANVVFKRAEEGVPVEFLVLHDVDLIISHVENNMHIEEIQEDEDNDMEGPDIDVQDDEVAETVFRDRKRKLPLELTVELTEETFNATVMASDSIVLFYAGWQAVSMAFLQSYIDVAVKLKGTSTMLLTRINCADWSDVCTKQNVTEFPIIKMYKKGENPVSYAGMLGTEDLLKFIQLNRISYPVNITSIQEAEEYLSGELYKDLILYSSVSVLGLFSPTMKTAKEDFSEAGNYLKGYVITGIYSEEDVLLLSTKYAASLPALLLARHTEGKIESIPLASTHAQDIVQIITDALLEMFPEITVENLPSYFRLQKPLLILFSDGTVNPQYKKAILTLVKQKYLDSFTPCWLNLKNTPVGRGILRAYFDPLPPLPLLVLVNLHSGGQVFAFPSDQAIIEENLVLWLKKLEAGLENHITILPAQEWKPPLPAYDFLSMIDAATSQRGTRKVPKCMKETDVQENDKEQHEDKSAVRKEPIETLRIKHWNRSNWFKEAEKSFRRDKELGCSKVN
# UniProt Q8N2K1: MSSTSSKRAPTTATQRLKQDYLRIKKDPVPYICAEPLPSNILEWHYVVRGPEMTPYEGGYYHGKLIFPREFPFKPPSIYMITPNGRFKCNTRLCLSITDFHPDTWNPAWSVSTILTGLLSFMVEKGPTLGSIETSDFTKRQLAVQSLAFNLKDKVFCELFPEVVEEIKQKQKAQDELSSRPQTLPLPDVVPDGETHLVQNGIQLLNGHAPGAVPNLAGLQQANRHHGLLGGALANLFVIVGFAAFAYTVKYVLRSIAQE
# UniProt Q8WVN8: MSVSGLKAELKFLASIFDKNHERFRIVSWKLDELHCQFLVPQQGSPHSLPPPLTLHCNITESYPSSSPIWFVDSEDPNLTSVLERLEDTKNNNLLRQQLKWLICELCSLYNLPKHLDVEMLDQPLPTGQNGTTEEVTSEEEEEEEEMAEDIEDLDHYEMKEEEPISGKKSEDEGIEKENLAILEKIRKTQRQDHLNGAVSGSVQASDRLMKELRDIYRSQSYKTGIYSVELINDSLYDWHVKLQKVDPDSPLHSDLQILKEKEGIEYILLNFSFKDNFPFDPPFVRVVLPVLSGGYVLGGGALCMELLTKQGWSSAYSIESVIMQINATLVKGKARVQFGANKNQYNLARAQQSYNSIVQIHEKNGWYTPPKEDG
# UniProt Q96RR1: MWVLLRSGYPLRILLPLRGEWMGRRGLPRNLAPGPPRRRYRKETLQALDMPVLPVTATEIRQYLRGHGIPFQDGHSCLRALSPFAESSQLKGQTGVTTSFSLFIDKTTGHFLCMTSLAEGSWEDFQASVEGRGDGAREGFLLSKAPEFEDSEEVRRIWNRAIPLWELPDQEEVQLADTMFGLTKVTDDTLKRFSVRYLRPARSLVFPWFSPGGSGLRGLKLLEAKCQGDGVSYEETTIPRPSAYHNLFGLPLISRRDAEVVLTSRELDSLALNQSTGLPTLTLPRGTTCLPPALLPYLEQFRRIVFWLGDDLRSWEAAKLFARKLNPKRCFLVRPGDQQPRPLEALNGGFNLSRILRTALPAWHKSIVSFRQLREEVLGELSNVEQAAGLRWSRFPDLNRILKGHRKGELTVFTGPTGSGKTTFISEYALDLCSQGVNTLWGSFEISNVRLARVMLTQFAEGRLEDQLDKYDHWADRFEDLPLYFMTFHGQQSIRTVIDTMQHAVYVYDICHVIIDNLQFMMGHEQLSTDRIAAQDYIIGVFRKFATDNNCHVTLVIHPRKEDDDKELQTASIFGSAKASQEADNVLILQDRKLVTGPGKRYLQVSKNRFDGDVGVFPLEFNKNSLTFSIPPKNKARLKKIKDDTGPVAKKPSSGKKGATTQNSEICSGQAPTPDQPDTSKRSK
# The list shows a part of the results.
# How the values were obtained:
# Assay in all cases: log2 fold change, soluble protein after heating vs DMSO (PISA); higher = thermal stabilisation; K562 lysate, 10 uM; active = over 0.2 and 3.5 SD of the protein, either way, in both replicates (recomputed)
# alvocidib = compound: CN1CC[C@H](c2c(O)cc(O)c3c(=O)cc(-c4ccccc4Cl)oc23)[C@H](O)C1 [alvocidib]
# Method in brief: (§1)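 The values are log-two fold changes in thermal stability compared with solvent controls and come from duplicates. They were obtained by TMTpro 16plex LC-MS/MS, with channel sums equalised, on the supernatant after 21,000xg for 90 min. That supernatant came from crude K562 extract at 1 mg/mL protein treated with 10 μM compound for 30 min, heated for 3 min across 48°C-58°C, pooled and brought to 0.5% NP-40 at 4°C.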
# Tubastatin A = compound: CN1CCc2c(c3ccccc3n2Cc2ccc(C(=O)NO)cc2)C1 [Tubastatin A]
# Method in brief: as §1
# [1] = compound: CNC(=O)C1=CC=CC=C1NC2=NC(=NC=C2Cl)NC3=C(C=C(C=C3)N4CCOCC4)OC
# Method in brief: as §1
# defactinib = compound: CNC(=O)c1ccc(Nc2ncc(C(F)(F)F)c(NCc3nccnc3N(C)S(C)(=O)=O)n2)cc1 [defactinib]
# Method in brief: as §1
# [2] = compound: CNc1nc(-c2ccc3c(N)n[nH]c3c2)cc(N2C[C@@H](C(=O)NC3CCCCC3)CC[C@H]2C)n1
# Method in brief: as §1
# encorafenib = compound: COC(=O)N[C@@H](C)CNc1nccc(-c2cn(C(C)C)nc2-c2cc(Cl)cc(NS(C)(=O)=O)c2F)n1 [encorafenib]
# Method in brief: as §1
# [3] = compound: COC(=O)[C@H](CCSC)NC(=O)C1=C(C=C(C=C1)NC[C@H](CS)N)C2=CC=CC=C2
# Method in brief: as §1
# alisertib = compound: COc1cc(Nc2ncc3c(n2)-c2ccc(Cl)cc2C(c2c(F)cccc2OC)=NC3)ccc1C(=O)O [alisertib]
# Method in brief: as §1
# [4] = compound: COc1cc2nc(-c3cc(F)ccc3O)nc(N[C@@H]3CNC[C@H]3C(C)(C)O)c2cc1OC
# Method in brief: as §1
# gefitinib = compound: COc1cc2ncnc(Nc3ccc(F)c(Cl)c3)c2cc1OCCCN1CCOCC1 [gefitinib]
# Method in brief: as §1
# lapatinib = compound: CS(=O)(=O)CCNCc1ccc(-c2ccc3ncnc(Nc4ccc(OCc5cccc(F)c5)c(Cl)c4)c3c2)o1 [lapatinib]
# Method in brief: as §1
# crizotinib = compound: C[C@@H](Oc1cc(-c2cnn(C3CCNCC3)c2)cnc1N)c1c(Cl)ccc(F)c1Cl [crizotinib]
# Method in brief: as §1
# [5] = compound: C[C@H](C1=CC=C(C=C1)C(=O)NC2=C3C=CNC3=NC=C2)N
# Method in brief: as §1
# duvelisib = compound: C[C@H](Nc1ncnc2nc[nH]c12)c1cc2cccc(Cl)c2c(=O)n1-c1ccccc1 [duvelisib]
# Method in brief: as §1
# gandotinib = compound: Cc1cc(Nc2cc(CN3CCOCC3)c3nc(C)c(Cc4ccc(Cl)cc4F)n3n2)n[nH]1 [gandotinib]
# Method in brief: as §1
# tozasertib = compound: Cc1cc(Nc2cc(N3CCN(C)CC3)nc(Sc3ccc(NC(=O)C4CC4)cc3)n2)n[nH]1 [tozasertib]
# Method in brief: as §1
# doramapimod = compound: Cc1ccc(-n2nc(C(C)(C)C)cc2NC(=O)Nc2ccc(OCCN3CCOCC3)c3ccccc23)cc1 [doramapimod]
# Method in brief: as §1
# [6] = compound: Cc1cccc(CC(=O)N2CCc3c2ccc(-c2cn(C)c4ncnc(N)c24)c3F)n1
# Method in brief: as §1
# pictilisib = compound: CS(=O)(=O)N1CCN(Cc2cc3nc(-c4cccc5[nH]ncc45)nc(N4CCOCC4)c3s2)CC1 [pictilisib]
# Method in brief: as §1
# bafetinib = compound: Cc1ccc(NC(=O)c2ccc(CN3CC[C@H](N(C)C)C3)c(C(F)(F)F)c2)cc1Nc1nccc(-c2cncnc2)n1 [bafetinib]
# Method in brief: as §1
Target,log2 fold change (alvocidib),log2 fold change (Tubastatin A),log2 fold change [1],log2 fold change (defactinib),log2 fold change [2],log2 fold change (encorafenib),log2 fold change [3],log2 fold change (alisertib),log2 fold change [4],log2 fold change (gefitinib),log2 fold change (lapatinib),log2 fold change (crizotinib),log2 fold change [5],log2 fold change (duvelisib),log2 fold change (gandotinib),log2 fold change (tozasertib),log2 fold change (doramapimod),log2 fold change [6],log2 fold change (pictilisib),log2 fold change (bafetinib)
UBE2G2 (UniProt P60604),inactive: 0.025,inactive: -0.007,inactive: -0.013,inactive: 0.069,inactive: -0.052,inactive: -0.016,inactive: 0.097,inactive: 0.04,inactive: 0.021,inactive: -0.037,inactive: 0.058,inactive: 0.019,inactive: -0.045,inactive: 0.05,inactive: 0.018,inactive: -0.018,inactive: -0.07,inactive: 0.152,,
"UBE2L5, A0A1B0GUS4",inactive: -0.198,inactive: -0.102,inactive: -0.038,,,,,,inactive: 0.062,,inactive: -0.011,,inactive: 0.054,,inactive: 0.073,,,inactive: -0.001,,
TUBAL3 (UniProt A6NHL2),inactive: -0.276,inactive: 0.109,inactive: -0.179,inactive: -0.093,inactive: 0.039,inactive: 0.03,inactive: 0.032,inactive: 0.135,inactive: 0.088,inactive: -0.057,inactive: -0.07,,inactive: -0.434,inactive: -0.001,inactive: 0.312,inactive: 0.09,,active: 0.567,inactive: -0.034,inactive: -0.232
TUBGCP5 (UniProt Q96RT8),inactive: -0.069,inactive: -0.128,,inactive: -0.159,inactive: -0.055,inactive: 0.179,inactive: 0.145,inactive: -0.023,inactive: 0.025,inactive: -0.007,inactive: 0.11,inactive: -0.064,inactive: -0.044,inactive: 0.103,inactive: -0.009,inactive: 0.113,inactive: 0.044,inactive: 0.101,inactive: 0.037,inactive: -0.121
UBXN1 (UniProt Q04323),inactive: -0.043,inactive: 0.016,inactive: 0.01,inactive: 0.003,inactive: -0.011,inactive: 0.019,inactive: -0.092,inactive: 0.018,inactive: 0.01,inactive: 0.053,inactive: 0.013,inactive: -0.03,inactive: -0.049,inactive: 0.011,inactive: 0.024,inactive: -0.006,inactive: 0.045,inactive: 0.018,inactive: 0.003,inactive: -0.013
UBXN8 (UniProt O00124),inactive: -0.039,inactive: -0.037,inactive: 0.025,,inactive: 0.103,inactive: -0.144,inactive: -0.076,inactive: 0.045,,inactive: -0.053,,inactive: -0.263,inactive: -0.163,inactive: -0.117,inactive: -0.006,inactive: -0.002,inactive: 0.174,inactive: -0.056,,
TUFM (UniProt P49411),inactive: 0.051,inactive: -0.08,inactive: 0.007,inactive: -0.008,inactive: -0.039,inactive: -0.033,inactive: 0.139,inactive: 0.02,inactive: -0.02,inactive: -0.03,inactive: -0.006,inactive: -0.038,inactive: 0.05,inactive: 0.004,inactive: -0.073,inactive: 0.009,inactive: 0.012,inactive: -0.055,inactive: 0.025,inactive: -0.016
TXNDC2 (UniProt Q86VQ3),inactive: -0.003,inactive: 0.084,inactive: 0.055,,,,,inactive: 0.173,inactive: 0.025,inactive: -0.092,inactive: -0.009,inactive: -0.028,inactive: 0.083,,inactive: 0.1,,inactive: -0.071,inactive: -0.149,inactive: 0.045,inactive: 0.066
TUBB8B (UniProt A6NNZ2),inactive: -0.026,inactive: -0.171,,inactive: -0.02,inactive: 0.003,inactive: 0.039,inactive: 0.135,inactive: 0.097,inactive: 0.002,inactive: -0.127,inactive: 0.02,,inactive: 0.006,inactive: 0.012,inactive: 0.04,inactive: 0.032,,inactive: 0.01,inactive: 0.16,inactive: 0.031
TUBB6 (UniProt K7ES63),inactive: -0.11,inactive: -0.021,inactive: 0.111,inactive: -0.018,,inactive: 0.024,inactive: 0.125,inactive: 0.055,inactive: -0.051,inactive: 0.165,inactive: -0.1,inactive: -0.277,inactive: -0.178,,inactive: 0.042,inactive: 0.122,inactive: 0.2,inactive: 0.253,inactive: 0.021,inactive: -0.278
TUSC2 (UniProt O75896),inactive: -0.089,inactive: 0.049,inactive: 0.008,,inactive: -0.073,inactive: -0.148,inactive: -0.008,inactive: -0.033,inactive: 0.133,inactive: 0.03,inactive: -0.098,,inactive: -0.014,inactive: 0.092,inactive: 0.114,inactive: 0.103,,inactive: 0.008,inactive: -0.043,inactive: 0.096
TUFT1 (UniProt Q9NNX1),inactive: -0.082,inactive: -0.024,inactive: -0.001,,,inactive: 0,inactive: 0.075,inactive: -0.067,,inactive: 0.181,,,inactive: -0.084,,inactive: 0.061,inactive: -0.087,,inactive: 0.086,inactive: 0.092,inactive: -0.008
UBXN2B (UniProt Q14CS0),inactive: -0.123,inactive: -0.001,inactive: -0.046,inactive: 0.07,inactive: -0.018,inactive: -0.037,inactive: 0.069,inactive: 0.174,inactive: -0.114,inactive: 0.008,inactive: -0.226,,inactive: -0.01,inactive: 0.07,inactive: 0.213,inactive: 0.027,,inactive: -0.005,inactive: -0.036,inactive: 0.003
TXNDC16 (UniProt Q9P2K2),inactive: -0.017,inactive: -0.08,inactive: 0.164,inactive: -0.038,inactive: -0.086,,,,inactive: -0.062,,inactive: 0.118,inactive: -0.02,inactive: -0.008,inactive: -0.237,inactive: -0.059,,inactive: 0.023,inactive: -0.122,,
UBE2J2 (UniProt Q8N2K1),inactive: 0.177,inactive: -0.119,inactive: -0.055,inactive: -0.076,inactive: 0.157,inactive: 0.083,inactive: -0.181,inactive: 0.087,,inactive: -0.072,,inactive: -0.096,inactive: -0.033,inactive: -0.064,inactive: -0.334,inactive: 0.015,inactive: 0.015,inactive: -0.006,inactive: -0.017,inactive: 0.103
UBE2Q2 (UniProt Q8WVN8),inactive: 0.04,inactive: 0.175,inactive: -0.02,inactive: 0.087,inactive: -0.306,inactive: 0.032,inactive: 0.129,inactive: 0.001,inactive: 0.011,inactive: 0.106,inactive: -0.04,,inactive: -0.028,inactive: -0.027,inactive: -0.021,inactive: -0.043,,inactive: -0.043,inactive: -0.032,inactive: -0.019
UBR1 (UniProt Q8IWV7),inactive: -0.018,inactive: -0.026,inactive: 0.009,inactive: 0.001,inactive: -0.03,inactive: 0.033,inactive: 0.055,inactive: 0.003,inactive: -0.007,inactive: 0.016,inactive: -0.018,inactive: -0.082,inactive: -0.046,inactive: 0.01,inactive: -0.081,inactive: 0,inactive: 0.039,inactive: 0.032,inactive: -0.035,inactive: -0.065
TWNK (UniProt Q96RR1),inactive: -0.012,inactive: 0.344,inactive: -0.063,inactive: -0.076,inactive: 0.351,inactive: -0.032,inactive: 0.041,inactive: 0.01,,inactive: -0.043,,inactive: -0.204,inactive: 0.03,inactive: 0.083,inactive: -0.574,inactive: -0.042,inactive: 0.058,inactive: -0.039,inactive: -0.037,inactive: -0.243

# Retrieved one by one from the entries so far:
Target,log2 fold change (alvocidib),log2 fold change (Tubastatin A),log2 fold change [1],log2 fold change (defactinib),log2 fold change [2],log2 fold change (encorafenib),log2 fold change [3],log2 fold change (alisertib),log2 fold change [4],log2 fold change (gefitinib),log2 fold change (lapatinib),log2 fold change (crizotinib),log2 fold change [5],log2 fold change (duvelisib),log2 fold change (gandotinib),log2 fold change (tozasertib),log2 fold change (doramapimod),log2 fold change [6],log2 fold change (pictilisib),log2 fold change (bafetinib)
"UBE2L5, A0A1B0GUS4",inactive: -0.198,inactive: -0.102,inactive: -0.038,,,,,,inactive: 0.062,,inactive: -0.011,,inactive: 0.054,,inactive: 0.073,,,inactive: -0.001,,
TUBGCP5 (UniProt Q96RT8),inactive: -0.069,inactive: -0.128,,inactive: -0.159,inactive: -0.055,inactive: 0.179,inactive: 0.145,inactive: -0.023,inactive: 0.025,inactive: -0.007,inactive: 0.11,inactive: -0.064,inactive: -0.044,inactive: 0.103,inactive: -0.009,inactive: 0.113,inactive: 0.044,inactive: 0.101,inactive: 0.037,inactive: -0.121
